Assay [1] concerns Caco-2 Gut epithelial cells. Put plainly: cells. The conditions noted are these: Homo sapiens, Caco-2, read-out: IC50 inhibition of cysteine uptake. On the procedure: (§1) Pre-treatment in cells was performed for different time points for 30 min, 4, 24 and 48 h as described previously (Trivedi M., et al.; Mol. Pharm., 2014). Briefly, SH-SY5Y human neuronal cells and Caco-2 Gut epithelial cells were plated in six-well plates and were pretreated with drugs and incubated for various times prior to measuring uptake. Media were aspirated and cells were washed with 600 μL of HBSS at 37° C. Non-radioactive HBSS was aspirated, replaced with 600 μL of 37° C. HBSS containing [^35S]-cysteine, (1 μCi/1 mL), 10 μM unlabelled cysteine and 100 μM DTT, and the cells were incubated for 5 min. The [^35S]-cysteine/HBSS mixture was aspirated and treatment was terminated by two washes with ice-cold HBSS. Cells were then lysed with 600 μL of dH2O, scraped, collected in 1.5 mL microcentrifuge tubes, and sonicated for 10 s. 100 μL of each sample was aliquoted for protein assay. 200 μL of each sample (in triplicate) was aliquoted into scintillation vials with 4 mL of scintillation fluid, vortexed, and counted for radioactivity, normalized against protein content. […] Each * symbol in these Figures indicates a statistically significant difference (p<0.05) compared against the untreated control, and each #symbol indicates a statistically significant difference (p<0.005) compared against the untreated control.

For assay [2], the system named is SH-SY5Y human neuronal cells. Nature of the assay: cells. On the procedure: as §1
A further assay relates to SH-SY5Y neuronal cells. Put plainly: Intracellular cysteine, GSH and methylation metabolites by HPLC. Type of assay: cell-based, human. The protocol:
Briefly, SH-SY5Y neuronal cells were grown to confluence in α-MEM. Media was aspirated and the cells were washed twice with 1 mL of ice cold HBSS. HBSS was aspirated and 0.6 mL ice cold dH2O was added to the cells. The cells were scraped from the flask/dish and suspended in dH2O. The cell suspension was sonicated for 15 s on ice and 100 μL of the suspension was used to determine the protein content. The remaining lysate was added to a microcentrifuge tube and an equal volume of 0.4 N perchloric acid was added, followed by incubation on ice for 5 min. Samples were centrifuged at 5,000×g and the supernatant transferred to new microcentrifuge tubes. 100 μL of sample was added to a conical micro-autosampler vial and kept at 4° C. in the autosampler cooling tray. 10 μL of this sample was injected into the HPLC system.
The separation of redox and methylation pathway metabolites was accomplished using an Agilent Eclipse XDB-C8 analytical column (3×150 mm; 3.5 μm) and an Agilent Eclipse XDB-C8 (4.6×12.5 mm; 5 μm) guard column. Two mobile phases were used: Mobile Phase A was 0% acetonitrile, 25 mM sodium phosphate, 1.4 mM 1-octanesulfonic acid, adjusted to pH 2.65 with phosphoric acid. Mobile Phase B was 50% acetonitrile. […] Sample concentrations were determined from the peak areas of metabolites using standard calibration curves and ESA-supplied HPLC software. […]

For `CN1CC[C@]23c4c5ccc(O)c4O[C@H]2[C@@H](O)C=C[C@H]3[C@H]1C5` [morphine], the IC50 in assay [1] was 6.38 nM; in assay [2] (Homo sapiens, SH-SY5Y, read-out: IC50 inhibition of cysteine uptake), 0.16 nM. Also, the “receptor mediation of cysteine uptake inhibition” value in assay [2] (blockade by selective μ-antagonist (CTAP), not by delta antagonist (NTI)) is recorded as “μ-opioid receptor mediated”. In addition, in assay [2] (neuronal cells and GI epithelial cells (FIG. 6)), the “time at which inhibition of cysteine uptake was fully developed” value was 30 min. The GSH levels entry in the assay on SH-SY5Y neuronal cells (30 min, 4 h, 24 h) is listed as “time-dependent decreases”. The “GSH/GSSG ratio (redox status)” value in the assay with SH-SY5Y neuronal cells (over time) was “decreased”.

Source of the values: patent US11911439B2, “Beta-casein A2 and prevention of inflammation of the bowel” (THE A2 MILK COMPANY LIMITED, priority 2013, dated 2024).
